Reference: PubChem BioAssay AID504764 (Drosophila RNAi Screening Center, 2011)
The deposit covers about 22,000 reagents; this is an unselected part of those with a known target gene and a result. Over the whole deposit, 403 (1.9%) were called active. 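Unnormalised raw counts per well; ratio z-scores behind the hit calls and whether each hit raises or lowers signal are not deposited.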 Unmarked entries are inactive. The numbers tell different reagents against one gene apart. A plus sign joins genes that one reagent is predicted to hit. No sequences are given here. The record does not give: the amount of reagent.

- Aim: 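Knock-downs that raise or lower a Notch target reporter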 (primary screen)
- Cells: Drosophila Kc167 cells
- Reagent: long dsRNA against Drosophila genes
- Timing: about 5 days (4 days dsRNA, then 24 h after transfection)
- Challenge: transfection of constitutively active membrane-tethered Notch lacking the extracellular domain, read 24 h later
- Measurement: 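Light from a Notch-responsive E(spl)m3 luciferase reporter under active Notch, with control-promoter and no-Notch reporter wells to normalise; raw counts from paired wells a and b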
- Reading the numbers: induced reporter light, run 1, well a and induced reporter light, run 1, well b: higher = more light from the Notch target reporter with active Notch; control promoter light, run 1, well a and control promoter light, run 1, well b: higher = more light from the viral control promoter (cell number, transfection, viability); uninduced reporter light, run 1, well a: higher = more light from the Notch target reporter without active Notch
- Rule for the call: 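Wells with low control signal or poorly matching duplicates excluded; duplicates averaged; per source plate, z beyond ±2 for induced/control log2 ratio or beyond ±1.8 for induced/uninduced marks a hit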
- Meaning of the calls: active = modifier hit (raised or lowered Notch signal); inactive = not a hit

| gene | dsRNA no. | induced reporter light, run 1, well a | induced reporter light, run 1, well b | control promoter light, run 1, well a | control promoter light, run 1, well b | uninduced reporter light, run 1, well a |
| --- | --- | --- | --- | --- | --- | --- |
| CG32576 | 1 | 98755 | 1.14e5 | 1.20e5 | 97635 | 7670 |
| CG42336 | 1 | 1.60e5 | 2.02e5 | 2.44e5 | 2.60e5 | 21180 |
| CG42336 | 2 | 1.07e5 | 1.33e5 | 1.42e5 | 1.51e5 | 10865 |
| CG42336 | 3 | 1.14e5 | 1.20e5 | 1.35e5 | 1.36e5 | 11200 |
| CG14221 | 1 | 78420 | 84470 | 1.30e5 | 1.22e5 | 9015 |
| CG17896 | 1 | 2.18e5 | 2.47e5 | 3.16e5 | 3.26e5 | 15865 |
| stck | 1 | 1.11e5 | 1.23e5 | 1.15e5 | 85040 | 7775 |
| Jon25Bi | 1 | 59660 | 59530 | 65950 | 58605 | 4545 |
| Smn | 1 | 1.49e5 | 1.31e5 | 1.23e5 | 1.32e5 | 10890 |
| Gr64f | 1 | 1.73e5 | 1.55e5 | 2.22e5 | 2.15e5 | 10945 |
| Ets98B | 1 | 28730 | 28480 | 23630 | 24240 | 2088 |
| CG13720 | 1 | 88120 | 1.16e5 | 1.67e5 | 1.95e5 | 8000 |
| ssp3 | 1 | 39555 | 35100 | 53450 | 41105 | 2345 |
| ssp3 | 2 | 82355 | 48650 | 56280 | 96850 | 5620 |
| TwdlB | 1 | 1.79e5 | 1.10e5 | 1.90e5 | 1.56e5 | 12880 |
| mod | 1 | 1.69e5 | 1.77e5 | 2.46e5 | 2.15e5 | 14315 |

The list goes on, starting with the last 4 of the part before.
| gene | dsRNA no. | induced reporter light, run 1, well a | induced reporter light, run 1, well b | control promoter light, run 1, well a | control promoter light, run 1, well b | uninduced reporter light, run 1, well a |
| --- | --- | --- | --- | --- | --- | --- |
| ssp3 | 1 | 39555 | 35100 | 53450 | 41105 | 2345 |
| ssp3 | 2 | 82355 | 48650 | 56280 | 96850 | 5620 |
| TwdlB | 1 | 1.79e5 | 1.10e5 | 1.90e5 | 1.56e5 | 12880 |
| mod | 1 | 1.69e5 | 1.77e5 | 2.46e5 | 2.15e5 | 14315 |
| Dtwd2 + Obp84a | 1 | 96720 | 80965 | 1.16e5 | 77005 | 7055 |
| ATP7 | 1 | 1.22e5 | 1.17e5 | 2.24e5 | 1.57e5 | 8970 |
| DopEcR | 1 | 1.45e5 | 1.64e5 | 1.08e5 | 42540 | 13005 |
| dsx-c73A | 1 | 1.92e5 | 1.83e5 | 2.86e5 | 2.41e5 | 19820 |
| dsx-c73A | 2 | 1.76e5 | 1.51e5 | 2.13e5 | 1.84e5 | 11540 |
| dsx-c73A | 3 | 1.74e5 | 1.72e5 | 2.06e5 | 1.48e5 | 7975 |
| rdx | 1 | 37215 | 41260 | 26980 | 27595 | 7020 |
| rdx | 2 | 2.66e5 | 2.64e5 | 1.83e5 | 1.78e5 | 22890 |
| CG30458 | 1 | 92035 | 80385 | 84670 | 1.10e5 | 7935 |
| CG31538 | 1 | 1.66e5 | 1.22e5 | 1.96e5 | 1.44e5 | 12380 |
| CG5062 | 1 | 1.54e5 | 1.67e5 | 2.41e5 | 2.67e5 | 11305 |
| Bet5 | 1 | 1.33e5 | 1.24e5 | 1.35e5 | 1.32e5 | 10900 |
| CG3777 | 1 | 1.89e5 | 1.30e5 | 2.91e5 | 3.29e5 | 13375 |
| CG14855 | 1 | 2.07e5 | 2.00e5 | 1.70e5 | 1.44e5 | 15150 |
| Hsp68 | 1 | 2.16e5 | 2.08e5 | 2.18e5 | 2.54e5 | 16070 |
| orion | 1 | 2.02e5 | 2.01e5 | 3.88e5 | 3.14e5 | 15230 |
| orion | 2 | 1.82e5 | 1.92e5 | 2.71e5 | 2.89e5 | 11635 |
| CG13471 | 1 | 1.81e5 | 1.58e5 | 2.48e5 | 2.40e5 | 9765 |
